Experimental data taken from article PMC4499803.
Results are given in words; binding and its absence hold for the method and conditions named. Binding seen in cells or lysates may run through a third protein. Some entries that bind do so weakly or less than the wild type. Tags and fused reporters may be left off the sequences shown.

By UniProt entry, the sequences of proteins in these tests, tags left out.
UniProt Q14247: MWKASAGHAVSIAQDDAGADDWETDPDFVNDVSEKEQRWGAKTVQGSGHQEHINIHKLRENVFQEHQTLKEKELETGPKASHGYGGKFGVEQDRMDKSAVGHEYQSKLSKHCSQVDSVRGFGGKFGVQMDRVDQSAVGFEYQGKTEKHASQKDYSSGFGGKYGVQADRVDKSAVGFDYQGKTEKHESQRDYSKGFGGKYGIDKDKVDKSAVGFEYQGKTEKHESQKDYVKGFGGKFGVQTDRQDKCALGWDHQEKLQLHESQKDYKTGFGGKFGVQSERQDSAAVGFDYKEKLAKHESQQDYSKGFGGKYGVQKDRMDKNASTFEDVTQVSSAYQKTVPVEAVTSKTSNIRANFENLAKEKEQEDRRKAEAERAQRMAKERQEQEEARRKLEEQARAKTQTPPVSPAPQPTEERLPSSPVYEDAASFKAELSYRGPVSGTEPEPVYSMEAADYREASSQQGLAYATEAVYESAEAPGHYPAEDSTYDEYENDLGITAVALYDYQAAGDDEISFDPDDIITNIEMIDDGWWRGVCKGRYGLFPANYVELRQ

Target: Flag-tagged cortactin (UniProt Q14247)
Assay: co-IP; 293T cells co-transfected with Flag-cortactin and Myc-Fe65 or deletion constructs; cellular extracts (20 mM Tris-HCl pH 7.5, 150 mM NaCl, 1 mM EDTA, 1% NP-40) incubated with anti-Flag beads overnight at 4 °C; immunoblot

binding: binds
B1: Myc-tagged Fe65, full length (protein, UniProt O00213 1-710)
chain: MSVPSSLSQSAINANSHGGPALSLPLPLHAAHNQLLNAKLQATAVGPKDLRSAMGEGGGPEPGPANAKWLKEGQNQLRRAATAHRDQNRNVTLTLAEEASQEPEMAPLGPKGLIHLYSELELSAHNAANRGLRGPGLIISTQEQGPDEGEEKAAGEAEEEEEDDDDEEEEEDLSSPPGLPEPLESVEAPPRPQALTDGPREHSKSASLLFGMRNSAASDEDSSWATLSQGSPSYGSPEDTDSFWNPNAFETDSDLPAGWMRVQDTSGTYYWHIPTGTTQWEPPGRASPSQGSSPQEESQLTWTGFAHGEGFEDGEFWKDEPSDEAPMELGLKEPEEGTLTFPAQSLSPEPLPQEEEKLPPRNTNPGIKCFAVRSLGWVEMTEEELAPGRSSVAVNNCIRQLSYHKNNLHDPMSGGWGEGKDLLLQLEDETLKLVEPQSQALLHAQPIISIRVWGVGRDSGRERDFAYVARDKLTQMLKCHVFRCEAPAKNIATSLHEICSKIMAERRNARCLVNGLSLDHSKLVDVPFQVEFPAPKNELVQKFQVYYLGNVPVAKPVGVDVINGALESVLSSSSREQWTPSHVSVAPATLTILHQQTEAVLGECRVRFLSFLAVGRDVHTFAFIMAAGPASFCCHMFWCEPNAASLSEAVQAACMLRYQKCLDARSQASTSCLPAPPAESVARRVGWTVRRGVQSLWGSLKPKRLGAHTP
